# Laboratory results published in the supplement of paper PMC4604168 (melanoma cell lines).
# This is one part of the list. Single values are uncertain, as repeats are few or missing.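 Imaging used 1,536-well plates; nuclei positive for cleaved PARP by antibody were divided by total DNA-stained nuclei to yield the apoptosis fraction. Doses for screening kept most cells viable, and cell lines differ markedly in resting and induced cleaved-PARP levels.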
# Tests used:
# Assay in all cases: cleaved PARP positive nuclei fraction relative to DMSO control; melanoma cells; higher = more apoptosis
# Conditions in all cases: library dose: low library concentration; 72 h
# [1] = test system: 501Mel
# [2] = test system: A101D
# [3] = test system: A2058
# [4] = test system: A375
# [5] = test system: C32
# [6] = test system: CBRC013 (line from a melanoma biopsy)
# [7] = test system: CBRC014 (line from a melanoma biopsy)
# [8] = test system: CBRC016 (line from a melanoma biopsy)
# [9] = test system: CBRC017 (line from a melanoma biopsy)
SMILES,cleaved PARP positive nuclei fraction [1] [%],cleaved PARP positive nuclei fraction [2] [%],cleaved PARP positive nuclei fraction [3] [%],cleaved PARP positive nuclei fraction [4] [%],cleaved PARP positive nuclei fraction [5] [%],cleaved PARP positive nuclei fraction [6] [%],cleaved PARP positive nuclei fraction [7] [%],cleaved PARP positive nuclei fraction [8] [%],cleaved PARP positive nuclei fraction [9] [%]
"COc1ccc(-c2ccc3c(N4CCOCC4)nc(N4C[C@@H](C)O[C@@H](C)C4)nc3n2)cc1CO + c1cc(-c2cnn3cc(-c4ccc(OCCN5CCCCC5)cc4)cnc23)ccn1 [Dorsomorphin] (first compound 0.02 µM, partner dose 0.4 µM)",87.9,55.2,90.3,298,40.5,327,96.4,43.6,89.8
"Oc1cc(-c2nc(-c3ccccc3)[nH]c2-c2ccncc2)ccc1Cl + COc1cc(N2CCC(N3CCN(C)CC3)CC2)ccc1Nc1ncc(Cl)c(Nc2ccccc2S(=O)(=O)C(C)C)n1 [NVP-TAE684] (first compound 0.2 µM, partner dose 0.08 µM)",44.1,69.6,102,428,176,410,103,91.5,78.5
"CCN(CC)CCCCNc1ncc2cc(-c3cc(OC)cc(OC)c3)c(NC(=O)NC(C)(C)C)nc2n1 + COc1cc2ncnc(Nc3ccc(Oc4ccccc4)cc3)c2cc1OC [SrcI1] (first compound 0.1 µM, partner dose 2 µM)",73.8,181,35.4,76.6,100,42,70.5,69.9,65.8
"Oc1cc(-c2nc(-c3ccccc3)[nH]c2-c2ccncc2)ccc1Cl + O=C1NC(=O)/C(=C/c2ccc(-c3ccc(F)cc3O)o2)S1 [AS252424] (first compound 0.2 µM, partner dose 1 µM)",48.8,164,51.5,682,50.2,54.1,104,46.5,138
"COc1cc2ncnc(Nc3ccc(Oc4ccccc4)cc3)c2cc1OC + O=c1cc(-c2cccc3c2Sc2ccccc2S3)oc(N2CCOCC2)c1 [KU55933] (first compound 2 µM, partner dose 1 µM)",78.8,45.5,82.4,116,25.8,24.1,82.7,62.6,93.7
"Oc1cc(-c2nc(-c3ccccc3)[nH]c2-c2ccncc2)ccc1Cl + CC(C)CCN1c2nc(Nc3cc(F)c(O)c(F)c3)ncc2N(C)C(=O)C1C [BID1870] (first compound 0.2 µM, partner dose 0.2 µM)",83.8,132,66.7,382,51.2,150,115,20.8,70
"Oc1cc(-c2nc(-c3ccccc3)[nH]c2-c2ccncc2)ccc1Cl + O=C(O)C(=O)Nc1sc2c(c1C(=O)O)CCNC2 [TCS401] (first compound 0.2 µM, partner dose 1.66667 µM)",185,44.1,53.7,328,37.2,74.6,79.4,104,79.2
"COC(=O)c1sccc1S(=O)(=O)Nc1ccc(Nc2ccccc2)cc1OC + Cn1cc(/C=C2\C(=O)Nc3cccnc32)c2ccccc21 [GW441756] (first compound 1 µM, partner dose 0.4 µM)",46.2,62.6,137,134,271,246,89.9,93,92.2
"COc1cc2c(Oc3ccc4[nH]c(C)cc4c3F)ncnc2cc1OCCCN1CCCC1 [cediranib] + O=C(Nc1ccccc1)c1cc([N+](=O)[O-])ccc1Cl [GW9662] (first compound 0.4 µM, partner dose 2 µM)",87.6,121,48.9,133,136,166,100,50.1,79.9
"O=S(=O)(c1ccccc1)N(CC(F)(F)F)c1ccc(C(O)(C(F)(F)F)C(F)(F)F)cc1 + Cc1cc([N+](=O)[O-])ccc1NS(=O)(=O)c1cc(Cl)ccc1Cl [FH535] (first compound 1.4 µM, partner dose 1 µM)",99.4,77.8,25.6,157,146,329,141,929,367
"N#Cc1c(O)c2c(-c3ccc(-c4ccccc4O)cc3)csc2[nH]c1=O + Cc1cc([N+](=O)[O-])ccc1NS(=O)(=O)c1cc(Cl)ccc1Cl [FH535] (first compound 2 µM, partner dose 1 µM)",82.3,162,40,76.1,54.6,613,329,1180,665
"COc1cc2c(Oc3ccc4[nH]c(C)cc4c3F)ncnc2cc1OCCCN1CCCC1 [cediranib] + CC(C)CCN1c2nc(Nc3cc(F)c(O)c(F)c3)ncc2N(C)C(=O)C1C [BID1870] (first compound 0.4 µM, partner dose 0.2 µM)",94.3,156,28.7,19.3,92.6,367,95.6,68.3,248
"O=C(O)c1ccc(-c2c[nH]c3ncc(-c4ccccc4)cc23)cc1C1CCCC1 + O=C1NC(=O)/C(=C/c2ccc(-c3ccc(F)cc3O)o2)S1 [AS252424] (first compound 0.16 µM, partner dose 1 µM)",41.1,74.3,362,184,147,430,114,66.8,127
"Oc1nc(-c2ccc(C(F)(F)F)cc2)nc2c1CSCC2 + CCCCCCCCCCCC1=C(O)C(=O)C=C(O)C1=O [Embelin] (first compound 2 µM, partner dose 1.2 µM)",72.4,428,110,144,127,96.2,90.2,80.2,106
"O=C(Nc1ccccc1)c1cc([N+](=O)[O-])ccc1Cl + O=C(O)C(=O)Nc1sc2c(c1C(=O)O)CCNC2 [TCS401] (first compound 2 µM, partner dose 1.66667 µM)",77.7,112,72.8,152,68.6,79.2,82.2,47.8,80.6
"COc1cc2ncnc(Nc3ccc(Oc4ccccc4)cc3)c2cc1OC + c1cc(-c2cnn3cc(-c4ccc(OCCN5CCCCC5)cc4)cnc23)ccn1 [Dorsomorphin] (first compound 2 µM, partner dose 0.4 µM)",77.3,48.9,88.2,45.6,71.9,61.8,94.1,88.4,98.2
"COc1ccc2c(c1)CCC1C2CCC2(C)C(NCCCCCCN3C(=O)C=CC3=O)CCC12 (stereo unspecified) + Oc1nc(-c2ccc(C(F)(F)F)cc2)nc2c1CSCC2 [XAV939] (first compound 0.4 µM, partner dose 2 µM)",34.4,121,55,512,132,188,99.2,147,104
"COc1cc2c(Oc3ccc4[nH]c(C)cc4c3F)ncnc2cc1OCCCN1CCCC1 [cediranib] + O=C(O)C(=O)Nc1sc2c(c1C(=O)O)CCNC2 [TCS401] (first compound 0.4 µM, partner dose 1.66667 µM)",88.7,192,70.3,254,51.1,99,84.8,74.2,58.8
"COc1cc2c(Oc3ccc4[nH]c(C)cc4c3F)ncnc2cc1OCCCN1CCCC1 [cediranib] + CCCCCCCCCCCC1=C(O)C(=O)C=C(O)C1=O [Embelin] (first compound 0.4 µM, partner dose 1.2 µM)",83.9,169,127,106,188,58.9,81.2,60.6,139
"O=C(O)c1ccc(-c2c[nH]c3ncc(-c4ccccc4)cc23)cc1C1CCCC1 + COc1ccc(COc2ccc(Cc3cnc(N)nc3N)cc2OC)cc1 [GW2580] (first compound 0.16 µM, partner dose 1 µM)",84.7,41.6,59,185,125,163,105,21.8,205
"O=C(Nc1ccccc1)c1cc([N+](=O)[O-])ccc1Cl + COc1ccc(COc2ccc(Cc3cnc(N)nc3N)cc2OC)cc1 [GW2580] (first compound 2 µM, partner dose 1 µM)",51.9,49.7,132,56,55.8,131,260,60.1,103
"COc1ccc2c(c1)CCC1C2CCC2(C)C(NCCCCCCN3C(=O)C=CC3=O)CCC12 (stereo unspecified) + CCCCCCCCCCCC1=C(O)C(=O)C=C(O)C1=O [Embelin] (first compound 0.4 µM, partner dose 1.2 µM)",69.8,86.6,86.2,63.3,114,196,95.1,55.2,53
"COc1ccc(COc2ccc(Cc3cnc(N)nc3N)cc2OC)cc1 + COc1cc(N2CCC(N3CCN(C)CC3)CC2)ccc1Nc1ncc(Cl)c(Nc2ccccc2S(=O)(=O)C(C)C)n1 [NVP-TAE684] (first compound 1 µM, partner dose 0.08 µM)",73.4,52.8,131,291,73.1,178,101,15.9,34.5
"NCC(=O)Nc1ccc(-n2nc(C(F)(F)F)cc2-c2ccc3c(ccc4ccccc43)c2)cc1 + Cc1cc([N+](=O)[O-])ccc1NS(=O)(=O)c1cc(Cl)ccc1Cl [FH535] (first compound 1 µM, partner dose 1 µM)",434,119,195,4280,62.1,308,200,2730,298

# Exported tab-delimited: part of the list above.
SMILES	cleaved PARP positive nuclei fraction [1] [%]	cleaved PARP positive nuclei fraction [2] [%]	cleaved PARP positive nuclei fraction [3] [%]	cleaved PARP positive nuclei fraction [4] [%]	cleaved PARP positive nuclei fraction [5] [%]	cleaved PARP positive nuclei fraction [6] [%]	cleaved PARP positive nuclei fraction [7] [%]	cleaved PARP positive nuclei fraction [8] [%]	cleaved PARP positive nuclei fraction [9] [%]
N#Cc1c(O)c2c(-c3ccc(-c4ccccc4O)cc3)csc2[nH]c1=O + Cc1cc([N+](=O)[O-])ccc1NS(=O)(=O)c1cc(Cl)ccc1Cl [FH535] (first compound 2 µM, partner dose 1 µM)	82.3	162	40	76.1	54.6	613	329	1180	665
COc1cc2c(Oc3ccc4[nH]c(C)cc4c3F)ncnc2cc1OCCCN1CCCC1 [cediranib] + CC(C)CCN1c2nc(Nc3cc(F)c(O)c(F)c3)ncc2N(C)C(=O)C1C [BID1870] (first compound 0.4 µM, partner dose 0.2 µM)	94.3	156	28.7	19.3	92.6	367	95.6	68.3	248
O=C(O)c1ccc(-c2c[nH]c3ncc(-c4ccccc4)cc23)cc1C1CCCC1 + O=C1NC(=O)/C(=C/c2ccc(-c3ccc(F)cc3O)o2)S1 [AS252424] (first compound 0.16 µM, partner dose 1 µM)	41.1	74.3	362	184	147	430	114	66.8	127
Oc1nc(-c2ccc(C(F)(F)F)cc2)nc2c1CSCC2 + CCCCCCCCCCCC1=C(O)C(=O)C=C(O)C1=O [Embelin] (first compound 2 µM, partner dose 1.2 µM)	72.4	428	110	144	127	96.2	90.2	80.2	106
O=C(Nc1ccccc1)c1cc([N+](=O)[O-])ccc1Cl + O=C(O)C(=O)Nc1sc2c(c1C(=O)O)CCNC2 [TCS401] (first compound 2 µM, partner dose 1.66667 µM)	77.7	112	72.8	152	68.6	79.2	82.2	47.8	80.6
